Reference: the supplement of paper PMC12823440, “Inhibitors supercharge kinase turnover through native proteolytic circuits” (Nature, 2025)
Counter-ions that a name gives are not always drawn. The list shows a part of the results. Hit calls seldom repeat between salt and free forms of one compound.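 In K562 cells expressing nanoluciferase-fused kinases, luminescence was recorded at 4 h intervals between 2 and 18 h, normalized as percent of control with DMSO at 100% and a positive control at 0%. A significant (2 sigma) signal drop marks a time point as decreased. The authors' rule for a hit is not shown and takes in more than the number of time points.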

Chains of the proteins cited; added tags and fusions are not shown. Lines headed by an entry give the natural chain unless they say otherwise; changes in a name come on top.
UniProt P00519, whole entry: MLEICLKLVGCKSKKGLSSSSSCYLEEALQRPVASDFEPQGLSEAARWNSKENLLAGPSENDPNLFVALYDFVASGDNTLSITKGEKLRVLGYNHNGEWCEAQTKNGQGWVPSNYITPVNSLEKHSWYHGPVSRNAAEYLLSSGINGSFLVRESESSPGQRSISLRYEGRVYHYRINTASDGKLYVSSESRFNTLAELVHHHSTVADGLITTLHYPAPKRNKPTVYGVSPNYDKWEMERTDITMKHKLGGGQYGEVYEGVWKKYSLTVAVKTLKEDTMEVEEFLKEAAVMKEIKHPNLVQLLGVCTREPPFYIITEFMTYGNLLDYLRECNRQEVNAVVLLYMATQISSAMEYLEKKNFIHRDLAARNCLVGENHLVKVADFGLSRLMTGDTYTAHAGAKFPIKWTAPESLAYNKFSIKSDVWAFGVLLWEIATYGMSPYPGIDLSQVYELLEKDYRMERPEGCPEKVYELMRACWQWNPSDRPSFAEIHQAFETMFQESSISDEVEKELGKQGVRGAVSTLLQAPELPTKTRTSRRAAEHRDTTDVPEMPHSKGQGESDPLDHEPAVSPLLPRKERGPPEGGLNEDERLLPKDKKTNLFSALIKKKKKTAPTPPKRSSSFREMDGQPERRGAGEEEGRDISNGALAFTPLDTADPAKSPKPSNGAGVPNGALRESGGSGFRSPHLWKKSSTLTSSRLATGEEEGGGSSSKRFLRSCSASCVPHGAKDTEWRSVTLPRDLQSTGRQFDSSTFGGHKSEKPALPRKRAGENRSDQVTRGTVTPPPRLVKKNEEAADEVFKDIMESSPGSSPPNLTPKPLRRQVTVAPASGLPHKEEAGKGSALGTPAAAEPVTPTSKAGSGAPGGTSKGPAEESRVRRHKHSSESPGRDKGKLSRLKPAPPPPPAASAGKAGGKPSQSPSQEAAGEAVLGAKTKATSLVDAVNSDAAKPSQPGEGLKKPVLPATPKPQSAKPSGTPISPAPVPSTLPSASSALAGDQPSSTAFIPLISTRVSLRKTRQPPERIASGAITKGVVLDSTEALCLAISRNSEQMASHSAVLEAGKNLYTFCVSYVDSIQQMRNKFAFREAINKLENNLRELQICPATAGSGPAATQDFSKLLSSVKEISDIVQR
UniProt P31749: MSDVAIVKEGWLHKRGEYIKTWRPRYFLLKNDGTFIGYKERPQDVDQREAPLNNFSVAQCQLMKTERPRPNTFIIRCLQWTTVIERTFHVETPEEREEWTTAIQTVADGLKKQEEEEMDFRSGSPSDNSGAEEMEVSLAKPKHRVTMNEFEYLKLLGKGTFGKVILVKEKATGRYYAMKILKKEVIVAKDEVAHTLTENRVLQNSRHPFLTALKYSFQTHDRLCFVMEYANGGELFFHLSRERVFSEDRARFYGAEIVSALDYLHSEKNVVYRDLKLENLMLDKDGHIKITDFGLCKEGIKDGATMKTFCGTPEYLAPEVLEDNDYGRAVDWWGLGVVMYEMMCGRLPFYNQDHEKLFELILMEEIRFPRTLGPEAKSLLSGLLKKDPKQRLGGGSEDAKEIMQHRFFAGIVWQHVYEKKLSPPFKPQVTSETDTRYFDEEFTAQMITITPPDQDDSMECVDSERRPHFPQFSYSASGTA
UniProt Q9UM73: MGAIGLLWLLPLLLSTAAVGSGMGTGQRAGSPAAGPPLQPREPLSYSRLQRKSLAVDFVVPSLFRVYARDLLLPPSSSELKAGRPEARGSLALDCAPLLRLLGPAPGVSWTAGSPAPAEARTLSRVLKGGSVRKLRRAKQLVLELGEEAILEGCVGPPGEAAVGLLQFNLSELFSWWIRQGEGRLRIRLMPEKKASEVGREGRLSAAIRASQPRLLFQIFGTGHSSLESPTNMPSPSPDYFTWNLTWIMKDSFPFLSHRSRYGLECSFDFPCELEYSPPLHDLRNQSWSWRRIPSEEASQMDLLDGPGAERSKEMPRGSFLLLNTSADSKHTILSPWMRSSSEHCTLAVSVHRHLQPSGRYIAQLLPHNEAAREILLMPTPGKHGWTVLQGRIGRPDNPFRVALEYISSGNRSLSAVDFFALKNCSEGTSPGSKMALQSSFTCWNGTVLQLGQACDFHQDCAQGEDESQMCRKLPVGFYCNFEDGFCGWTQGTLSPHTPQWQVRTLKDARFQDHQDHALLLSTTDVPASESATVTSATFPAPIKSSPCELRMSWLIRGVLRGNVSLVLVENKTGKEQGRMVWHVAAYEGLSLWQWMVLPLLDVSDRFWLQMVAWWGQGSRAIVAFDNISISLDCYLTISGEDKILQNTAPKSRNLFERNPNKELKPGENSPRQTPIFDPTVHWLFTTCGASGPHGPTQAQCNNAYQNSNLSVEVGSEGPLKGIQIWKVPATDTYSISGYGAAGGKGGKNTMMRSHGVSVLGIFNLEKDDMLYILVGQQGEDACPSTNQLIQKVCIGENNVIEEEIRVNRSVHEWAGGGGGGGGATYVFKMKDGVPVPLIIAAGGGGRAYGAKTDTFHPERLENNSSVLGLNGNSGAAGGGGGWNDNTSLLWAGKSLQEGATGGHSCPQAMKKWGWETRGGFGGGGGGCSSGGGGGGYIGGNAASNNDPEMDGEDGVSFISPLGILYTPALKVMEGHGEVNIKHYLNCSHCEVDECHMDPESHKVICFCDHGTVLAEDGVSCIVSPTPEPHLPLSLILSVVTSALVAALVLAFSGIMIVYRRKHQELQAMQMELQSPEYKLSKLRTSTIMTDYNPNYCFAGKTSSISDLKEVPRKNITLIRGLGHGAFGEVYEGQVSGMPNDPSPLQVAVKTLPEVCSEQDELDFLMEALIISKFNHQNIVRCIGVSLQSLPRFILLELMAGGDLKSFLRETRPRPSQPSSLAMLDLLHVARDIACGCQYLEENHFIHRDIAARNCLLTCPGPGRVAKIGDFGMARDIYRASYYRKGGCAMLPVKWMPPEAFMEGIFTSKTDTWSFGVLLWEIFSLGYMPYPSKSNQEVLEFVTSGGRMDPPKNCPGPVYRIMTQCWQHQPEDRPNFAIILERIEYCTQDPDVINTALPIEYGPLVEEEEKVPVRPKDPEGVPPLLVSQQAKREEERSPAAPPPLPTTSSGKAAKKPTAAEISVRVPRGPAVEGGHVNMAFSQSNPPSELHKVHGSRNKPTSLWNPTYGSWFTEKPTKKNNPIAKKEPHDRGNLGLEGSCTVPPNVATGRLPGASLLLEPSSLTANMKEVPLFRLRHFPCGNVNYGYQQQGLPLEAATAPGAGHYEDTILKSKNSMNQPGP
UniProt P10398: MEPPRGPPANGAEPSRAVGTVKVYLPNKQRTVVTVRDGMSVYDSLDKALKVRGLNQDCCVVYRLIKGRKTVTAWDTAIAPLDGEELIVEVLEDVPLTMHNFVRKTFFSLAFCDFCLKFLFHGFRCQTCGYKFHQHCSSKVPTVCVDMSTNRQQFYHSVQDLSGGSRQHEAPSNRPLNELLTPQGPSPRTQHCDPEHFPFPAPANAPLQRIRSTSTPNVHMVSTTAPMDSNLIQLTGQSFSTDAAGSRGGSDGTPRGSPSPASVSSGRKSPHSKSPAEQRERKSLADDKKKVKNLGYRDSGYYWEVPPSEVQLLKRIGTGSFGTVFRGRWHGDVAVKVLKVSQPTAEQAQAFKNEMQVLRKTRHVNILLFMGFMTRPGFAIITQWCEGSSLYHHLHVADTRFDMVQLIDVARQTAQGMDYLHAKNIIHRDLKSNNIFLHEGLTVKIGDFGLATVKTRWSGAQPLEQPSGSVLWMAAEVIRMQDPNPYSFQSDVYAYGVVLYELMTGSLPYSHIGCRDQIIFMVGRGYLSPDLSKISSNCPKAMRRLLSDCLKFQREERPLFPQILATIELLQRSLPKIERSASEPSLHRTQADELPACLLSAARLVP
UniProt O14965: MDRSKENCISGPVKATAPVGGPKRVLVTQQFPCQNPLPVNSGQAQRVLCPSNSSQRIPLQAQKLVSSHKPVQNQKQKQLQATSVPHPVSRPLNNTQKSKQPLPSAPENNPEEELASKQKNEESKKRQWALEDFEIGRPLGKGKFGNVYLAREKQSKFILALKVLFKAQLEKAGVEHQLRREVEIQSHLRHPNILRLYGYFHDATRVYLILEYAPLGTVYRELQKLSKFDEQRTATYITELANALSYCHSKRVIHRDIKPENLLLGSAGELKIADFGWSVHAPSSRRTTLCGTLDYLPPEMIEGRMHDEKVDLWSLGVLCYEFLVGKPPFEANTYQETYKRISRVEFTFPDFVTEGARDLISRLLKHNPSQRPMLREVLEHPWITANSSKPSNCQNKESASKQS
UniProt Q9UQB9: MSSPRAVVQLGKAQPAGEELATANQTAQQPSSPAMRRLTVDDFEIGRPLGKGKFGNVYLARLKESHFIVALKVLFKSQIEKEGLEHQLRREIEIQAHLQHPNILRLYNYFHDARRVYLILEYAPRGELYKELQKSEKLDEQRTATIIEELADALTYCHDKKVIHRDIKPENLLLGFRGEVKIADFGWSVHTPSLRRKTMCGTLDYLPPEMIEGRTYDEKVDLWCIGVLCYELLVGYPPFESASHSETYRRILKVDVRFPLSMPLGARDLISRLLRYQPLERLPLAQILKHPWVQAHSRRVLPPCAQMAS
UniProt P51451: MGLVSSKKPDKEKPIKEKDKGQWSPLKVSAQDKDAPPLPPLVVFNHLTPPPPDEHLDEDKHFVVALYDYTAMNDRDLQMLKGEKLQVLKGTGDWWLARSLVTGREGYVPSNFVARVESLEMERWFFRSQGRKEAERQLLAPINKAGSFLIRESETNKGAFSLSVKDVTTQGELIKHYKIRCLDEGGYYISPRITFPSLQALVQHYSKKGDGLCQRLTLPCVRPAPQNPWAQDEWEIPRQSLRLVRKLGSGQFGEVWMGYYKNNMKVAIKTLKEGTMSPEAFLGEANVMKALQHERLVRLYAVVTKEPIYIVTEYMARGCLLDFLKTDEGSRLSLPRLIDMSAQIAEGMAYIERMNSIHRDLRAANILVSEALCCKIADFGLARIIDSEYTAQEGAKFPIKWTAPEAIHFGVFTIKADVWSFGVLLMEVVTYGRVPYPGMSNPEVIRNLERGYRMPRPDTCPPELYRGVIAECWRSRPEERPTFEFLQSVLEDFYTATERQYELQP
UniProt P51813: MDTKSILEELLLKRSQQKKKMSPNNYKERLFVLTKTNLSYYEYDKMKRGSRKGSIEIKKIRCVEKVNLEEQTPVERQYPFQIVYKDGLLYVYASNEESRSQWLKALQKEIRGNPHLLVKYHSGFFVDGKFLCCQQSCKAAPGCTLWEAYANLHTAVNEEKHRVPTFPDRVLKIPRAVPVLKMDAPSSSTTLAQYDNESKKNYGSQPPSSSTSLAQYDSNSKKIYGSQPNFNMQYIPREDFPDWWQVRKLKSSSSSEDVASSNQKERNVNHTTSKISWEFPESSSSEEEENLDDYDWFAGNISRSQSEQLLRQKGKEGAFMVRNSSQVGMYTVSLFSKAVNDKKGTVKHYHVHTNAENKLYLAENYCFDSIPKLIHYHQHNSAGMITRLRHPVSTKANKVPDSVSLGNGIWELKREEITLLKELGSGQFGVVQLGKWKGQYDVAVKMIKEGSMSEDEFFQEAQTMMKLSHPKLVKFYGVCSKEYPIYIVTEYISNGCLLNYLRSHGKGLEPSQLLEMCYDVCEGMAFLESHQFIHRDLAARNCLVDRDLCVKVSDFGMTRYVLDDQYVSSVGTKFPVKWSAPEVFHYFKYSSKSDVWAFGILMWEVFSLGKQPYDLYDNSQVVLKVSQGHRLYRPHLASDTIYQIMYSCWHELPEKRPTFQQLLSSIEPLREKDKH
UniProt P15056, whole entry, looked up: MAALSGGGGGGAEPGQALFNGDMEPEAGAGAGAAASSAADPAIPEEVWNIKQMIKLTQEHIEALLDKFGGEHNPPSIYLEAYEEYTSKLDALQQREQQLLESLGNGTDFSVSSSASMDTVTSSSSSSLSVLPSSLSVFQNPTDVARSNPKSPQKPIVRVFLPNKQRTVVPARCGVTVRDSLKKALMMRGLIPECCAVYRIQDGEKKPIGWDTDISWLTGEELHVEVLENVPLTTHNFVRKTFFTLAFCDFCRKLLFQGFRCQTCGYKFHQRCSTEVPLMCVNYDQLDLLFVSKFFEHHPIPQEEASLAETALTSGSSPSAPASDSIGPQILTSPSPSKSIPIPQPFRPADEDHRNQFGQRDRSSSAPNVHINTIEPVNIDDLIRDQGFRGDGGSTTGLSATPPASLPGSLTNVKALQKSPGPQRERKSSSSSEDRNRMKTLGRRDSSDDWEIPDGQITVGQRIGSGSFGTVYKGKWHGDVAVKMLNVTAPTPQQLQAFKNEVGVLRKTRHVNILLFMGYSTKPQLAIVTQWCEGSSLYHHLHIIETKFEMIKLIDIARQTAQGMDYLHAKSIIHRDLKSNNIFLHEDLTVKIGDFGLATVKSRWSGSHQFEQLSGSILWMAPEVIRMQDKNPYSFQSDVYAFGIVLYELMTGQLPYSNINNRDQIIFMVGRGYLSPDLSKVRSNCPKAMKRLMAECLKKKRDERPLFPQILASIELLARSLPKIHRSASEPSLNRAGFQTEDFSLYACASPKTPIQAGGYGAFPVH

Experiments:
Test in all cases: kinase-Nluc reporter destabilization hit call (1 = scored as downregulated) (binary); higher = compound decreases kinase abundance
Conditions in all cases: K562; 2-18 h
[1] = molecular target: ABL1 (UniProt P00519)
[2] = molecular target: AKT1 (UniProt P31749)
[3] = molecular target: ALK (UniProt Q9UM73)
[4] = molecular target: ARAF (UniProt P10398)
[5] = molecular target: AURKA (UniProt O14965)
[6] = molecular target: AURKB (UniProt Q96GD4)
[7] = molecular target: AURKC (UniProt Q9UQB9)
[8] = molecular target: BLK (UniProt P51451)
[9] = molecular target: BMX (UniProt P51813)
[10] = molecular target: BRAF (UniProt P15056)

Measured: kinase-Nluc reporter destabilization hit call

Cc1nn(C)c2c1C(c1ccc(C(F)(F)F)cc1)C(C#N)=C(N)O2 (stereo not given) (10 µM)
inactive: [1] 0 | [2] 0 | [3] 0 | [4] 0 | [5] 0 | [6] 0 | [7] 0 | [8] 0 | [9] 0 | [10] 0

CNC(=O)c1cc2c(Oc3ccc(NC(=S)NC(=O)Cc4ccccc4)cc3F)ccnc2cc1OC [TAS-115 mesylate] (10 µM)
inactive: [1] 0 | [2] 0 | [3] 0 | [4] 0 | [5] 0 | [6] 0 | [7] 0 | [8] 0 | [9] 0 | [10] 0

COc1ccc2cc(-c3nc(-c4ccc([S+](C)[O-])cc4)[nH]c3-c3ccncc3)ccc2c1 (stereo not given) [Tie2 kinase inhibitor 1] (2.5 µM)
inactive: [1] 0 | [2] 0 | [3] 0 | [4] 0 | [5] 0 | [6] 0 | [7] 0 | [8] 0 | [9] 0 | [10] 0

Cc1ccc(C(=O)Nc2sc(Nc3ccccc3)nc2C(N)=O)cc1 (10 µM)
inactive: [1] 0 | [2] 0 | [3] 0 | [4] 0 | [5] 0 | [6] 0 | [7] 0 | [8] 0 | [9] 0 | [10] 0

O=C(O)c1cc(N(Cc2ccccc2O)Cc2ccccc2O)ccc1O [Lavendustin B] (10 µM)
inactive: [1] 0 | [2] 0 | [3] 0 | [4] 0 | [5] 0 | [6] 0 | [7] 0 | [8] 0 | [9] 0 | [10] 0

O=C(NCc1cccc(O)c1)Nc1nc(-c2ccncc2)cs1 (10 µM)
inactive: [1] 0 | [2] 0 | [3] 0 | [4] 0 | [5] 0 | [6] 0 | [7] 0 | [8] 0 | [9] 0 | [10] 0

N#Cc1c2nc3ccccc3nc2n2ccc(NC(=O)c3cccs3)cc12 (10 µM)
inactive: [1] 0 | [2] 0 | [3] 0 | [4] 0 | [5] 0 | [6] 0 | [7] 0 | [8] 0 | [9] 0 | [10] 0

CC(C)c1cc(/C=C(\C#N)C(=O)NCCCc2ccccc2)cc(C(C)C)c1O (10 µM)
inactive: [1] 0 | [2] 0 | [3] 0 | [4] 0 | [5] 0 | [6] 0 | [7] 0 | [8] 0 | [9] 0 | [10] 0

Cn1cc(C2=C(c3cccc(N)c3)C(=O)NC2=O)c2ccccc21 (10 µM)
inactive: [1] 0 | [2] 0 | [3] 0 | [4] 0 | [5] 0 | [6] 0 | [7] 0 | [8] 0 | [9] 0 | [10] 0

CCc1ccc(OCC(=O)Nc2ccc(F)c([N+](=O)[O-])c2)cc1 (10 µM)
inactive: [1] 0 | [2] 0 | [3] 0 | [4] 0 | [5] 0 | [6] 0 | [7] 0 | [8] 0 | [9] 0 | [10] 0

C[C@@H]1O[C@@H](O[C@@H]2[C@@H](O)[C@H](OCCc3ccc(O)c(O)c3)O[C@H](CO)[C@H]2OC(=O)/C=C/c2ccc(O)c(O)c2)[C@H](O)[C@H](O)[C@H]1O [Verbascoside] (10 µM)
inactive: [1] 0 | [2] 0 | [3] 0 | [4] 0 | [5] 0 | [6] 0 | [7] 0 | [8] 0 | [9] 0 | [10] 0

Cc1cccc2c3c(ccc12)C(=O)C1=C(OCC1C)C3=O (stereo not given) [Dihydroisotanshinone I] (2.5 µM)
inactive: [1] 0 | [2] 0 | [3] 0 | [4] 0 | [5] 0 | [6] 0 | [7] 0 | [8] 0 | [9] 0 | [10] 0

CNc1nc(Nc2ccc(C(=O)N3CCOCC3)cc2OC)ncc1Cl (2.5 µM)
inactive: [1] 0 | [2] 0 | [3] 0 | [4] 0 | [5] 0 | [6] 0 | [7] 0 | [8] 0 | [9] 0 | [10] 0

COc1cc(/C=C/C(=O)N2CCC=CC2=O)cc(OC)c1OC [Piperlongumine] (2.5 µM)
inactive: [1] 0 | [2] 0 | [3] 0 | [4] 0 | [5] 0 | [6] 0 | [7] 0 | [8] 0 | [9] 0 | [10] 0

NC1=NCCN1CC(=O)O [Cyclocreatine] (10 µM)
inactive: [1] 0 | [2] 0 | [3] 0 | [4] 0 | [5] 0 | [6] 0 | [7] 0 | [8] 0 | [9] 0 | [10] 0

CC[C@@](C)(Nc1ccnc(-c2c[nH]c3ncccc23)n1)C(=O)NCC(F)(F)F [Decernotinib] (10 µM)
inactive: [1] 0 | [2] 0 | [3] 0 | [4] 0 | [5] 0 | [6] 0 | [7] 0 | [8] 0 | [9] 0 | [10] 0

O=C(Nc1nc2ccccc2[nH]1)c1cccc([N+](=O)[O-])c1 [IRAK-4 protein kinase inhibitor 2] (10 µM)
inactive: [1] 0 | [2] 0 | [3] 0 | [4] 0 | [5] 0 | [6] 0 | [7] 0 | [8] 0 | [9] 0 | [10] 0

C=CC(=O)N1C(=O)CC(c2ccc(F)cc2)Sc2ccccc21 (stereo not drawn) [GSK-3β inhibitor 3] (10 µM)
inactive: [1] 0 | [2] 0 | [3] 0 | [4] 0 | [5] 0 | [6] 0 | [7] 0 | [8] 0 | [9] 0 | [10] 0

Three structures already listed, arranged by formula weight, ascending.
NC1=NCCN1CC(=O)O [Cyclocreatine] (10 µM)
inactive: [1] 0 | [2] 0 | [3] 0 | [4] 0 | [5] 0 | [6] 0 | [7] 0 | [8] 0 | [9] 0 | [10] 0

C=CC(=O)N1C(=O)CC(c2ccc(F)cc2)Sc2ccccc21 (stereo not drawn) [GSK-3β inhibitor 3] (10 µM)
inactive: [1] 0 | [2] 0 | [3] 0 | [4] 0 | [5] 0 | [6] 0 | [7] 0 | [8] 0 | [9] 0 | [10] 0

CC[C@@](C)(Nc1ccnc(-c2c[nH]c3ncccc23)n1)C(=O)NCC(F)(F)F [Decernotinib] (10 µM)
inactive: [1] 0 | [2] 0 | [3] 0 | [4] 0 | [5] 0 | [6] 0 | [7] 0 | [8] 0 | [9] 0 | [10] 0

(continued)

Cc1ncc(NC(=O)NC2c3ccccc3-c3ccccc32)c(-c2ccccc2)n1 (10 µM)
inactive: [1] 0 | [2] 0 | [3] 0 | [4] 0 | [5] 0 | [6] 0 | [7] 0 | [8] 0 | [9] 0 | [10] 0

Cc1cc(Nc2ncnc3ccc(-c4ccc(CNCCS(C)(=O)=O)o4)cc23)ccc1Oc1ccn2ncnc2c1 [ARRY-380 (analog )] (2.5 µM)
inactive: [1] 0 | [2] 0 | [3] 0 | [4] 0 | [5] 0 | [6] 0 | [7] 0 | [8] 0 | [9] 0 | [10] 0

CC(=O)c1c(C)c2cnc(Nc3ccc(N4CCN(C(=O)CNc5cccc6c5C(=O)N(C5CCC(=O)NC5=O)C6=O)CC4)cn3)nc2n(C2CCCC2)c1=O (stereo not given) (10 µM)
inactive: [1] 0 | [2] 0 | [3] 0 | [4] 0 | [5] 0 | [6] 0 | [7] 0 | [8] 0 | [9] 0 | [10] 0

Oc1ccc(/C=C/c2cc(O)cc(F)c2)cc1 [Resveratrol analog 1] (10 µM)
inactive: [1] 0 | [2] 0 | [3] 0 | [4] 0 | [5] 0 | [6] 0 | [7] 0 | [8] 0 | [9] 0 | [10] 0

C=CC(=O)Nc1cccc(CNc2nc(Nc3ccc(N4CCN(C)CC4)cc3OC)ncc2Cl)c1 (10 µM)
inactive: [1] 0 | [2] 0 | [3] 0 | [4] 0 | [5] 0 | [6] 0 | [7] 0 | [8] 0 | [9] 0 | [10] 0

COc1cc(N2CCOCC2)ccc1NC(=O)c1csc(-c2cccnc2)n1 [IRAK inhibitor 6] (10 µM)
inactive: [1] 0 | [2] 0 | [3] 0 | [4] 0 | [5] 0 | [6] 0 | [7] 0 | [8] 0 | [9] 0 | [10] 0

c1ccc(-c2nc3c(c(-n4ccc5cnccc54)n2)CCC3)nc1 (10 µM)
inactive: [1] 0 | [2] 0 | [3] 0 | [4] 0 | [5] 0 | [6] 0 | [7] 0 | [8] 0 | [9] 0 | [10] 0

COc1ccc2cc3[n+](cc2c1OC)CCc1cc(O)c(O)cc1-3 [Demethyleneberberine] (10 µM)
inactive: [1] 0 | [2] 0 | [3] 0 | [4] 0 | [5] 0 | [6] 0 | [7] 0 | [8] 0 | [9] 0 | [10] 0

CCc1cncnc1N1CCN(Cc2nc3ccc(C(F)(F)F)cc3[nH]2)CC1 (10 µM)
inactive: [1] 0 | [2] 0 | [3] 0 | [4] 0 | [5] 0 | [6] 0 | [7] 0 | [8] 0 | [9] 0 | [10] 0

C[C@@H]1CC(=O)c2c(ccc3c2C(=O)c2cccc(O)c2C3=O)C1 [Ochromycinone] (10 µM)
inactive: [1] 0 | [2] 0 | [3] 0 | [4] 0 | [5] 0 | [6] 0 | [7] 0 | [8] 0 | [9] 0 | [10] 0

O=C(Nc1cccc(C(F)(F)F)c1)c1cccc2cc(Oc3cc(CO)ncn3)ccc12 (10 µM)
inactive: [1] 0 | [2] 0 | [3] 0 | [4] 0 | [5] 0 | [6] 0 | [7] 0 | [8] 0 | [9] 0 | [10] 0
